Data as given in patent US20150126364A1, “1,3-DIARYL-SUBSTITUTED HETEROCYCLIC PESTICIDES” (E I DU PONT DE NEMOURS AND COMPANY, priority 2012, published 2015).
Some entries share one result that the patent states for a list of compounds. At least one compound was matched to its structure with a doubt left.

What follows are compounds tested on diamondback moth (Plutella xylostella) (assay: Test A: control of diamondback moth on radish plant, foliar spray). Settings: sprayed at 50 ppm; 6 days; very good to excellent control.
Type: in vivo

Structure (SMILES)	control efficacy: feeding damage (40% or less feeding damage and/or 100% mortality) [%]
CC(=O)N[C@@H]1CCN(Cc2nn(-c3ccc(F)c(Cl)c3)nc2-c2ccc(F)cc2)C1 [Compound 139]	≤ 40

Same assay, conditions: sprayed at 250 ppm; 6 days; very good to excellent control

Structure (SMILES)	control efficacy: feeding damage (40% or less feeding damage and/or 100% mortality) [%]
N#CC1CCN(Cc2oc(-c3ccc(Cl)cc3)nc2-c2ccc(F)cc2)CC1 [Compound 61]	≤ 40

The compounds below were run on fall armyworm (Spodoptera frugiperda) (assay: Test B: control of fall armyworm on maize plant, foliar spray). Settings: sprayed at 50 ppm; very good to excellent control.
Type: in vivo

Structure (SMILES)	control efficacy: feeding damage (40% or less feeding damage and/or 100% mortality) [%]
N#CC1CCN(Cc2[nH]c(-c3cccc(C(F)(F)F)c3)nc2-c2ccccc2F)CC1 [Compound 39]	≤ 40
N#CC1CCN(Cc2nn(-c3ccc(Cl)cc3)nc2-c2ccccc2F)CC1 [Compound 53]	≤ 40
CC(=O)NC1CCN(Cc2nn(-c3cccc(C(F)(F)F)c3)nc2-c2ccccc2F)CC1 [Compound 57]	≤ 40
N#CC1CCN(Cc2oc(-c3ccc(Cl)cc3)nc2-c2ccc(F)cc2)CC1 [Compound 61]	≤ 40
N#CC1CCN(Cc2[nH]c(-c3ccc(Cl)cc3)nc2-c2ccc(F)cc2F)CC1 [Compound 73]	≤ 40
N#CC1CCN(Cc2[nH]c(-c3ccccc3F)nc2-c2ccc(F)cc2F)CC1 [Compound 77]	≤ 40
N#CC1CCN(Cc2[nH]c(-c3cccc(C(F)(F)F)c3)nc2-c2ccc(F)cc2F)CC1 [Compound 91]	≤ 40

Same assay, conditions: sprayed at 250 ppm; very good to excellent control

Structure (SMILES)	control efficacy: feeding damage (40% or less feeding damage and/or 100% mortality) [%]
COC(=O)C1CCCN(Cc2cc(-c3ccc(F)c(Cl)c3)nn2-c2ccc(F)cc2)C1 (stereo not shown) [Compound 32]	≤ 40
N#CC1CCN(Cc2[nH]c(-c3cccc(C(F)(F)F)c3)nc2-c2ccccc2F)CC1 [Compound 39]	≤ 40
COC(=O)C1CCN(Cc2nn(-c3ccc(Cl)c(Cl)c3)nc2-c2ccccc2F)CC1 [Compound 55]	≤ 40
CC(=O)NC1CCN(Cc2nn(-c3ccc(Cl)c(Cl)c3)nc2-c2ccccc2F)CC1 [Compound 56]	≤ 40
CC(=O)NC1CCN(Cc2nn(-c3cccc(C(F)(F)F)c3)nc2-c2ccccc2F)CC1 [Compound 57]	≤ 40
Fc1ccccc1-c1nn(-c2ccc(Cl)c(Cl)c2)nc1CN1CCOCC1 [Compound 59]	≤ 40
N#CC1CCN(Cc2oc(-c3ccc(Cl)cc3)nc2-c2ccc(F)cc2)CC1 [Compound 61]	≤ 40
N#CC1CCN(Cc2oc(-c3ccc(Cl)c(Cl)c3)nc2-c2ccc(F)cc2)CC1 [Compound 63]	≤ 40
N#CC1CCN(Cc2oc(-c3cccc(C(F)(F)F)c3)nc2-c2ccc(F)cc2)CC1 [Compound 64]	≤ 40
COC(=O)C1CCN(Cc2oc(-c3ccc(Cl)c(Cl)c3)nc2-c2ccc(F)cc2)CC1 [Compound 66]	≤ 40
CC(=O)NC1CCN(Cc2oc(-c3ccc(Cl)c(Cl)c3)nc2-c2ccc(F)cc2)CC1 [Compound 67]	≤ 40
COC(=O)C1CCN(Cc2oc(-c3cccc(C(F)(F)F)c3)nc2-c2ccc(F)cc2)CC1 [Compound 69]	≤ 40
Fc1ccc(-c2nc(-c3ccc(Cl)c(Cl)c3)oc2CN2CCOCC2)cc1 [Compound 71]	≤ 40
N#CC1CCN(Cc2[nH]c(-c3ccc(Cl)cc3)nc2-c2ccc(F)cc2F)CC1 [Compound 73]	≤ 40
N#CC1CCN(Cc2[nH]c(-c3ccccc3F)nc2-c2ccc(F)cc2F)CC1 [Compound 77]	≤ 40

The compounds below were run on potato leafhopper (Empoasca fabae) (assay: Test D: control of potato leafhopper on Soleil bean plant, contact and/or systemic). Settings: sprayed at 50 ppm; 6 days; very good to excellent control.
Type: in vivo
Method: Test compounds were formulated using a solution containing 10% acetone, 90% water and 300 ppm X-77® Spreader Lo-Foam Formula non-ionic surfactant containing alkylarylpolyoxyethylene, free fatty acids, glycols and isopropanol (Loveland Industries, Inc. Greeley, Colo., USA). The formulated compounds were applied in 1 mL of liquid through a SUJ2 atomizer nozzle with ⅛ JJ custom body (Spraying Systems Co., Wheaton, Ill., USA) positioned 1.27 cm (0.5 inches) above the top of each test unit. Test compounds were sprayed at 250 ppm and/or 50 ppm, and replicated three times. After spraying of the formulated test compound, each test unit was allowed to dry for 1 h and then a black, screened cap was placed on top. The test units were held for 6 days in a growth chamber at 25° C. and 70% relative humidity. Plant feeding damage was then visually assessed based on foliage consumed.
For evaluating control of potato leafhopper (Empoasca fabae) through contact and/or systemic means, the test unit consisted of a small open container with a 5-6-day-old Soleil bean plant (primary leaves emerged) inside. White sand was added to the top of the soil and one of the primary leaves was excised prior to application.
Test compounds were formulated and sprayed at 250 ppm and/or 50 ppm, and the tests were replicated three times as described for Test A. After spraying, the test units were allowed to dry for 1 h before they were post-infested with 5 potato leafhoppers (18-21-day-old adults). A black, screened cap was placed on the top of each test unit, and the test units were held for 6 days in a growth chamber at 24° C. and 70% relative humidity. Each test unit was then visually assessed for insect mortality.

Structure (SMILES)	control efficacy: mortality [%]
CC(=O)NC1CCN(Cc2nn(-c3ccc(Cl)c(Cl)c3)nc2-c2ccccc2F)CC1 [Compound 56]	≥ 80
CC(=O)NC1CCN(Cc2nn(-c3cccc(C(F)(F)F)c3)nc2-c2ccccc2F)CC1 [Compound 57]	≥ 80
CC(=O)NC1CCN(Cc2oc(-c3ccc(Cl)c(Cl)c3)nc2-c2ccc(F)cc2)CC1 [Compound 67]	≥ 80
N#CC1CCN(Cc2[nH]c(-c3ccc(Cl)cc3)nc2-c2ccc(F)cc2F)CC1 [Compound 73]	≥ 80

Same assay, conditions: sprayed at 250 ppm; 6 days; very good to excellent control

Structure (SMILES)	control efficacy: mortality [%]
COC(=O)C1CCN(Cc2nn(-c3ccc(Cl)c(Cl)c3)nc2-c2ccccc2F)CC1 [Compound 55]	≥ 80
CC(=O)NC1CCN(Cc2nn(-c3ccc(Cl)c(Cl)c3)nc2-c2ccccc2F)CC1 [Compound 56]	≥ 80
CC(=O)NC1CCN(Cc2nn(-c3cccc(C(F)(F)F)c3)nc2-c2ccccc2F)CC1 [Compound 57]	≥ 80
COC(=O)C1CCN(Cc2oc(-c3ccc(Cl)c(Cl)c3)nc2-c2ccc(F)cc2)CC1 [Compound 66]	≥ 80
CC(=O)NC1CCN(Cc2oc(-c3ccc(Cl)c(Cl)c3)nc2-c2ccc(F)cc2)CC1 [Compound 67]	≥ 80
N#CC1CCN(Cc2[nH]c(-c3ccc(Cl)cc3)nc2-c2ccc(F)cc2F)CC1 [Compound 73]	≥ 80
N#CC1CCN(Cc2[nH]c(-c3ccccc3F)nc2-c2ccc(F)cc2F)CC1 [Compound 77]	≥ 80
N#CC1CCN(Cc2[nH]c(-c3cccc(C(F)(F)F)c3)nc2-c2ccc(F)cc2F)CC1 [Compound 91]	≥ 80
CC(=O)N[C@@H]1CCN(Cc2nn(-c3ccc(F)c(Cl)c3)nc2-c2ccc(F)cc2)C1 [Compound 139]	≥ 80
